Assay [1] addresses T1, Chromator (endogenous, S2 cells) (Drosophila (endogenous in S2 cells)) (UniProt Q86BS3).
T1 sequence: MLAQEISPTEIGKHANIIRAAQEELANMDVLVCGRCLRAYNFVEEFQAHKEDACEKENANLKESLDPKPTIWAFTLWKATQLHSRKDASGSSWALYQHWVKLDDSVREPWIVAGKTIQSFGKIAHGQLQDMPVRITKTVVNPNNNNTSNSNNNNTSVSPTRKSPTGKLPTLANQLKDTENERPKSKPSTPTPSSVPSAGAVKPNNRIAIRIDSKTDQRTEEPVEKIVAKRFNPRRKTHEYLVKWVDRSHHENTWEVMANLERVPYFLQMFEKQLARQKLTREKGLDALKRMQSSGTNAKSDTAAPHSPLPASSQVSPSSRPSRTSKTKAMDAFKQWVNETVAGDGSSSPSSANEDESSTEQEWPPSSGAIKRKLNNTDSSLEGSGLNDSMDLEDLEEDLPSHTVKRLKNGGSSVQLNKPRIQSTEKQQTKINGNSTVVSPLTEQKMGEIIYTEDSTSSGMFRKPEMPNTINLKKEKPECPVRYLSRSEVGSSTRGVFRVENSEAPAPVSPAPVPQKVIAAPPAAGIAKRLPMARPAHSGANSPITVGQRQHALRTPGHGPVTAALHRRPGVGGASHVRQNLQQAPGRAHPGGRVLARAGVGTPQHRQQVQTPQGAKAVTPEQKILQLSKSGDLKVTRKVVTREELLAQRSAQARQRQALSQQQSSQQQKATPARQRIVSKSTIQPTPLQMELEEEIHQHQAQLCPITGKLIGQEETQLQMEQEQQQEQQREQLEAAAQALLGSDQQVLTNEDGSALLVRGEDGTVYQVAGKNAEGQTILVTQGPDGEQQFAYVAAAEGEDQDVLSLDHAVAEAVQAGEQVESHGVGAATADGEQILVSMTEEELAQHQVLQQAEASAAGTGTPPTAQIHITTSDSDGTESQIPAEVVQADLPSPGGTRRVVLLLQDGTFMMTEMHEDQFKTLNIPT
Briefly: co-IP; untreated S2 cell lysate; anti-alpha-tubulin antibody or Chromator mAb 12H9 on protein G-Sepharose beads, overnight at 4°C in ip buffer; blots with mAb 6H11 or anti-tubulin antibody.

Assay [2] addresses T2, Chro-FL (1–926), full-length Chromator GST-fusion protein (Drosophila) (UniProt Q86BS3).
T2 sequence: T1 sequence
Briefly: pull-down; Chro-FL-GST or GST on glutathione-agarose beads, incubated with S2 cell lysate at 4°C overnight; blot with tubulin antibody; colchicine or taxol not stated for this panel (Fig. 1C); only the target purified.

In assay [3] the target is T3, Chro-CTD (329–926), COOH-terminal domain of Chromator, GST-fusion protein (Drosophila) (UniProt Q86BS3).
T3 sequence: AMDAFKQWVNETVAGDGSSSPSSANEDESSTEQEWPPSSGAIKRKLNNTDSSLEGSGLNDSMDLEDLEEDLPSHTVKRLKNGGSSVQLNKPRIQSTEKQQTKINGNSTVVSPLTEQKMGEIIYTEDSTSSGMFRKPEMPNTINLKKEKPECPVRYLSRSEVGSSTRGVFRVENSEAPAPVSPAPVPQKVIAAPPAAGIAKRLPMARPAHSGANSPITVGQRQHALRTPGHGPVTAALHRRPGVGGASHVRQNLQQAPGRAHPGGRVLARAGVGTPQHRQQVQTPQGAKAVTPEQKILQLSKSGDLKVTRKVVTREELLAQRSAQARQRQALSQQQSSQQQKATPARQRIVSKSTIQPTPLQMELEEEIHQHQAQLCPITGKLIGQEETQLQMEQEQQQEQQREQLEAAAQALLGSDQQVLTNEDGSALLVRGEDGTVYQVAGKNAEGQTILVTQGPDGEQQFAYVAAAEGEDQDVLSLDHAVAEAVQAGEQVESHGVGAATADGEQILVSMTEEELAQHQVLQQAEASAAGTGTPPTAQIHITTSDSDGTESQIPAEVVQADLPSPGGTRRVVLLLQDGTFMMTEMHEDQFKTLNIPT
Briefly: pull-down; GST fusion proteins or GST on glutathione agarose beads, incubated with S2 cell lysate with 1 mg/ml colchicine (microtubules depolymerized) at 4°C overnight; blot with anti-tubulin antibody; only the target purified.

The target in assay [4] is T2, Chro-FL (1–926), full-length Chromator GST-fusion protein (Drosophila). The assay is described as above.
Assay [5] deals with T4, Chro-M (329-600), truncated COOH-terminal domain of Chromator, GST-fusion protein (Drosophila) (UniProt Q86BS3).
T4 sequence: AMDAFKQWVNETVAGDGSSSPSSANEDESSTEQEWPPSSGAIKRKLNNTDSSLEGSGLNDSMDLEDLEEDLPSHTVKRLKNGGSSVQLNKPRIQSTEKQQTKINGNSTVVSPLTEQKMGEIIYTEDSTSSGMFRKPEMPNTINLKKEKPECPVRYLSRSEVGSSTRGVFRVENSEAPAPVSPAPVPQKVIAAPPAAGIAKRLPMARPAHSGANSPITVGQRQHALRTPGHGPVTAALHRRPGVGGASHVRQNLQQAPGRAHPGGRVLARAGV
The assay is described as above.

The target in assay [6] is T5, Chro-NTD (1–346), NH2-terminal domain of Chromator, GST-fusion protein (Drosophila) (UniProt Q86BS3).
T5 sequence: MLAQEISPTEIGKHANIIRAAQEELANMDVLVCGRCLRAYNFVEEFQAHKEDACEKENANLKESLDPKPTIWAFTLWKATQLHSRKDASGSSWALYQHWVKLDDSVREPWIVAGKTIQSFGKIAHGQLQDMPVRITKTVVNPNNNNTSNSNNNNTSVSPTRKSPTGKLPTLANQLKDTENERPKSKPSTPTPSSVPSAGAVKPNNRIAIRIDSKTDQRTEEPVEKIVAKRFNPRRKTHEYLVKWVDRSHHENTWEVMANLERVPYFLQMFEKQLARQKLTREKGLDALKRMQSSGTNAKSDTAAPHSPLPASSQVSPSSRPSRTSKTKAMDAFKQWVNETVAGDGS
Described as above.

In assay [7] the target is purified bovine brain tubulin (bovine). Briefly: co-sedimentation; microtubules assembled from 16 µg bovine brain tubulin in PEM buffer with 20 µM taxol and 2 mM GTP, incubated with GST fusion proteins at room temperature for 30 min, pelleted at 75,000 rpm for 20 min; pellet and supernatant blotted; both purified.

These are yes or no findings as the source states them, for the method shown. For some of these results: A result given as binding can be weak or reduced; the word gives no strength. For some of these results: Tags and fused reporters may be left off the sequences shown. For some of these results: Binding seen in cells or lysates may run through a third protein.

“tubulin (endogenous, S2 cells) (Drosophila (endogenous in S2 cells)) (complex)”: the binding result is reported as “binds” in assay [1]; “binds” in assay [2]; “binds” in assay [3]; “binds” in assay [4]; “binds” in assay [5]; “no binding” in assay [6].

B1: Chro-M (329-600), truncated COOH-terminal domain of Chromator, GST-fusion protein (domain or fragment, UniProt Q86BS3 329-600)
chain: T4 sequence
For the molecule B1, the binding result in assay [7] is listed as “binds”.

B2: Chro-NTD (1–346), NH2-terminal domain of Chromator, GST-fusion protein (domain or fragment, UniProt Q86BS3 1-346)
chain: T5 sequence
As to B2, in assay [7], the binding entry is given as “no binding”.

B3: Chro-421 (601–926), truncated COOH-terminal domain of Chromator, GST-fusion protein (domain or fragment, UniProt Q86BS3 601-926)
chain: GTPQHRQQVQTPQGAKAVTPEQKILQLSKSGDLKVTRKVVTREELLAQRSAQARQRQALSQQQSSQQQKATPARQRIVSKSTIQPTPLQMELEEEIHQHQAQLCPITGKLIGQEETQLQMEQEQQQEQQREQLEAAAQALLGSDQQVLTNEDGSALLVRGEDGTVYQVAGKNAEGQTILVTQGPDGEQQFAYVAAAEGEDQDVLSLDHAVAEAVQAGEQVESHGVGAATADGEQILVSMTEEELAQHQVLQQAEASAAGTGTPPTAQIHITTSDSDGTESQIPAEVVQADLPSPGGTRRVVLLLQDGTFMMTEMHEDQFKTLNIPT
Take B3: the binding entry in assay [7] is given as “no binding”.

B4: Chro-CTD (329–926), COOH-terminal domain of Chromator, GST-fusion protein (domain or fragment, UniProt Q86BS3 329-926)
chain: T3 sequence
Consider B4, for which the binding result in assay [7] was “binds”.

The record behind these values is paper PMC4114980.
